Results are given in words; binding and its absence hold for the method and conditions named. Binding calls can cover weak binding; strength is not graded here.
Tests used:
[1] = molecular target: bovine PD-1 expressed on CHO-DG44 cells (bovine PD-1 expressing cells) (bovine); assay: flow cytometry on bovine PD-1 expressing CHO-DG44 cells
[2] = molecular target: bovine PD-1 expressed on CHO-DG44 cells (bovine PD-1 expressing cells) (bovine); assay: flow cytometry on bovine PD-1 expressing CHO-DG44 cells, Alexa Fluor 647-labeled anti-bovine IgG (H+L) detection

binding [1]: binds
binding [2]: binds
B1: rat-bovine chimeric anti-bovine PD-1 antibody ch5D2 (mutated bovine IgG1, IgG1 ADCC-) (antibody)
heavy: QVQLKETGPGLVQPTQTLSITCTVSGFSLTSYYIQWVRQTPGKGLEWMGFIRSGGSTEYNSEFKSRLSINRDTSKNQVFLKMNSLKTEDTGVYYCARTSSGYEGGFDYWGQGVMVTVSSASTTAPKVYPLSSCCGDKSSSTVTLGCLVSSYMPEPVTVTWNSGALKSGVHTFPAVLQSSGLYSLSSMVTVPGSTSGQTFTCNVAHPASSTKVDKAVDPTCKPSPCDCCPPPPVAGPSVFIFPPKPKDTLTISGTPEVTCVVVDVGHDDPEVKFSWFVDDVEVNTATTKPREEQFNSTYRVVSALRIQHQDWTGGKEFKCKVHNEGLPSSIVRTISRTKGPAREPQVYVLAPPQEELSKSTVSLTCMVTSFYPDYIAVEWQRNGQPESEDKYGTTPPQLDADSSYFLYSKLRVDRNSWQEGDTYTCVVMHEALHNHYTQKSTSKSAGK
light: DVVLTQTPVSLSVTLGDQASISCRSSQSLEYSDGYTYLEWYLQKPGQSPQLLIYGVSNRFSGVPDRFIGSGSGTDFTLKISRVEPEDLGVYYCFQATHDPDTFGAGTKLELKQPKSPPSVTLFPPSTEELNGNKATLVCLISDFYPGSVTVVWKADGSTITRNVETTRASKQSNSKYAASSYLSLTSSDWKSKGSYSCEVTHEGSTVTKTVKPSECS

Source: US20190185568A1
